{
  "source": "the supplement of paper PMC8728848",
  "binders": {"B1": {"name": "Latrophilin-3 (Homo sapiens), Q9HAR2 (protein)", "chain": "MWPSQLLIFMMLLAPIIHAFSRAPIPMAVVRRELSCESYPIELRCPGTDVIMIESANYGRTDDKICDSDPAQMENIRCYLPDAYKIMSQRCNNRTQCAVVAGPDVFPDPCPGTYKYLEVQYECVPYKVEQKVFLCPGLLKGVYQSEHLFESDHQSGAWCKDPLQASDKIYYMPWTPYRTDTLTEYSSKDDFIAGRPTTTYKLPHRVDGTGFVVYDGALFFNKERTRNIVKFDLRTRIKSGEAIIANANYHDTSPYRWGGKSDIDLAVDENGLWVIYATEQNNGKIVISQLNPYTLRIEGTWDTAYDKRSASNAFMICGILYVVKSVYEDDDNEATGNKIDYIYNTDQSKDSLVDVPFPNSYQYIAAVDYNPRDNLLYVWNNYHVVKYSLDFGPLDSRSGQAHHGQVSYISPPIHLDSELERPSVKDISTTGPLGMGSTTTSTTLRTTTLSPGRSTTPSVSGRRNRSTSTPSPAVEVLDDMTTHLPSASSQIPALEESCEAVEAREIMWFKTRQGQIAKQPCPAGTIGVSTYLCLAPDGIWDPQGPDLSNCSSPWVNHITQKLKSGETAANIARELAEQTRNHLNAGDITYSVRAMDQLVGLLDVQLRNLTPGGKDSAARSLNKAMVETVNNLLQPQALNAWRDLTTSDQLRAATMLLHTVEESAFVLADNLLKTDIVRENTDNIKLEVARLSTEGNLEDLKFPENMGHGSTIQLSANTLKQNGRNGEIRVAFVLYNNLGPYLSTENASMKLGTEALSTNHSVIVNSPVITAAINKEFSNKVYLADPVVFTVKHIKQSEENFNPNCSFWSYSKRTMTGYWSTQGCRLLTTNKTHTTCSCNHLTNFAVLMAHVEVKHSDAVHDLLLDVITWVGILLSLVCLLICIFTFCFFRGLQSDRNTIHKNLCISLFVAELLFLIGINRTDQPIACAVFAALLHFFFLAAFTWMFLEGVQLYIMLVEVFESEHSRRKYFYLVGYGMPALIVAVSAAVDYRSYGTDKVCWLRLDTYFIWSFIGPATLIIMLNVIFLGIALYKMFHHTAILKPESGCLDNIKSWVIGAIALLCLLGLTWAFGLMYINESTVIMAYLFTIFNSLQGMFIFIFHCVLQKKVRKEYGKCLRTHCCSGKSTESSIGSGKTSGSRTPGRYSTGSQSRIRRMWNDTVRKQSESSFITGDINSSASLNREGLLNNARDTSVMDTLPLNGNHGNSYSIASGEYLSNCVQIIDRGYNHNETALEKKILKELTSNYIPSYLNNHERSSEQNRNLMNKLVNNLGSGREDDAIVLDDATSFNHEESLGLELIHEESDAPLLPPRVYSTENHQPHHYTRRRIPQDHSESFFPLLTNEHTEDLQSPHRDSLYTSMPTLAGVAATESVTTSTQTEPPPAKCGDAEDVYYKSMPNLGSRNHVHQLHTYYQLGRGSSDGFIVPPNKDGTPPEGSSKGPAHLVTSL"}},
  "assay_in_all_cases": "glycan array binding signal (z-score within array); higher = stronger binding",
  "details_in_all_cases": "glycan notation: IUPAC condensed, linker removed",
  "key": {"[1]": {"biological_target": "GlcNAc(b1-3)Gal(b1-3)GalNAc", "summary_of_the_method": "(§1)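 From the Consortium for Functional Glycomics database, 3228 arrays were curated, keeping only those whose protein sequence was available. Binding is given as a within-array Z-score averaged across arrays sharing a protein sequence and across linkers. Negative Z-scores can be read as non-binding.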"}, "[2]": {"biological_target": "GlcNAc(b1-3)Gal(b1-4)Glc", "summary_of_the_method": "as §1"}, "[3]": {"biological_target": "GlcNAc(b1-3)Gal(b1-4)GlcNAc", "summary_of_the_method": "as §1"}, "[4]": {"biological_target": "GlcNAc(b1-3)Gal(b1-4)GlcNAc(b1-3)Gal(b1-4)GlcNAc", "summary_of_the_method": "as §1"}, "[5]": {"biological_target": "GlcNAc(b1-3)GalNAc", "summary_of_the_method": "as §1"}, "[6]": {"biological_target": "GlcNAc(b1-3)Man", "summary_of_the_method": "as §1"}, "[7]": {"biological_target": "GlcNAc(b1-3)[GlcNAc(b1-4)][GlcNAc(b1-6)]GlcNAc", "summary_of_the_method": "as §1"}, "[8]": {"biological_target": "GlcNAc(b1-3)[GlcNAc(b1-6)]Gal(b1-4)GlcNAc", "summary_of_the_method": "as §1"}, "[9]": {"biological_target": "GlcNAc(b1-3)[GlcNAc(b1-6)]GalNAc", "summary_of_the_method": "as §1"}, "[10]": {"biological_target": "GlcNAc(b1-4)Gal(b1-4)GlcNAc", "summary_of_the_method": "as §1"}, "[11]": {"biological_target": "GlcNAc(b1-4)GlcNAc", "summary_of_the_method": "as §1"}, "[12]": {"biological_target": "GlcNAc(b1-4)GlcNAc(b1-4)GlcNAc", "summary_of_the_method": "as §1"}, "[13]": {"biological_target": "GlcNAc(b1-4)GlcNAc(b1-4)GlcNAc(b1-4)GlcNAc(b1-4)GlcNAc", "summary_of_the_method": "as §1"}, "[14]": {"biological_target": "GlcNAc(b1-4)GlcNAc(b1-4)GlcNAc(b1-4)GlcNAc(b1-4)GlcNAc(b1-4)GlcNAc", "summary_of_the_method": "as §1"}, "[15]": {"biological_target": "GlcNAc(b1-4)[GlcNAc(b1-6)]GalNAc", "summary_of_the_method": "as §1"}, "[16]": {"biological_target": "GlcNAc(b1-6)Gal(b1-4)GlcNAc", "summary_of_the_method": "as §1"}, "[17]": {"biological_target": "GlcNAc(b1-6)GalNAc", "summary_of_the_method": "as §1"}, "[18]": {"biological_target": "GlcNAc3Prop(b1-4)GlcNAc", "summary_of_the_method": "as §1"}, "[19]": {"biological_target": "GlcNAc6S(b1-3)Gal(b1-4)GlcNAc", "summary_of_the_method": "as §1"}, "[20]": {"biological_target": "Kdn(a2-3)Gal(b1-3)GalNAc", "summary_of_the_method": "as §1"}, "[21]": {"biological_target": "Kdn(a2-3)Gal(b1-3)GlcNAc", "summary_of_the_method": "as §1"}, "[22]": {"biological_target": "Kdn(a2-3)Gal(b1-4)Glc", "summary_of_the_method": "as §1"}},
  "note": "This is one part of the list.",
  "data": [
    {"binder": "B1", "values": [
      {"measurement": "glycan array binding signal (z-score)", "setting": "[1]", "value": 1.03},
      {"measurement": "glycan array binding signal (z-score)", "setting": "[2]", "value": -0.207},
      {"measurement": "glycan array binding signal (z-score)", "setting": "[3]", "value": -0.046},
      {"measurement": "glycan array binding signal (z-score)", "setting": "[4]", "value": -0.273},
      {"measurement": "glycan array binding signal (z-score)", "setting": "[5]", "value": -0.602},
      {"measurement": "glycan array binding signal (z-score)", "setting": "[6]", "value": -0.668},
      {"measurement": "glycan array binding signal (z-score)", "setting": "[7]", "value": -0.458},
      {"measurement": "glycan array binding signal (z-score)", "setting": "[8]", "value": -0.394},
      {"measurement": "glycan array binding signal (z-score)", "setting": "[9]", "value": -1.09},
      {"measurement": "glycan array binding signal (z-score)", "setting": "[10]", "value": -1.24},
      {"measurement": "glycan array binding signal (z-score)", "setting": "[11]", "value": -0.41},
      {"measurement": "glycan array binding signal (z-score)", "setting": "[12]", "value": -0.887},
      {"measurement": "glycan array binding signal (z-score)", "setting": "[13]", "value": 0.111},
      {"measurement": "glycan array binding signal (z-score)", "setting": "[14]", "value": -0.811},
      {"measurement": "glycan array binding signal (z-score)", "setting": "[15]", "value": -0.937},
      {"measurement": "glycan array binding signal (z-score)", "setting": "[16]", "value": -0.645},
      {"measurement": "glycan array binding signal (z-score)", "setting": "[17]", "value": -1.33},
      {"measurement": "glycan array binding signal (z-score)", "setting": "[18]", "value": 0.321},
      {"measurement": "glycan array binding signal (z-score)", "setting": "[19]", "value": 0.203},
      {"measurement": "glycan array binding signal (z-score)", "setting": "[20]", "value": 0.824},
      {"measurement": "glycan array binding signal (z-score)", "setting": "[21]", "value": -0.098},
      {"measurement": "glycan array binding signal (z-score)", "setting": "[22]", "value": 0.542}
    ]}
  ]
}
